PubChem BioAssay AID256 (DTP/NCI, 2004)
The list is a part of this screen's results and no random one: it gathers tests that were run many times, whatever their T/C, doses with no T/C, and many T/C values between a quarter and a half above the control. Further doses and runs are listed elsewhere. T/C gives the treated animals as a percentage of the vehicle group. Some doses have a count of surviving animals in place of a T/C: the source holds a T/C of zero for them, seemingly a mark for toxic or unscored doses. Some doses without a T/C left all or most animals alive at the check, yet need not have been tolerated: survival well below the control is almost never listed, so the zero probably covers shortened survival too. Counts of survivors are from the toxicity check (mostly the fifth day) where no day follows; animals may have died later. Schedules are NCI's codes, read here as Q, the interval in days (D) or hours (H), X, the number of doses. Marks such as (2×) give the number of equal values in this list. Some entries were tested several times; the values are given in rising order. Some structures stand for samples that the source files as different forms (salt, stereo form or complex); doses refer to the form tested. Where survival is the endpoint, the PubChem record calls one and a half times the control and up active, and a quarter to a half above the control has no call in these data; cut-offs in other NCI protocols can differ. Some T/C values are followed by the survivors on the day toxicity was checked, most often the fifth; where none is given, no animal had died by that day.

System: CD2F1 mice, L1210 leukemia ip, survival T/C
Assay: NCI In Vivo Anticancer Drug Screen. Data for tumor model L1210 Leukemia (intraperitoneal) in CD2F1 (CDF1) mice
Settings: higher T/C = longer survival
Summary of the method: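 Vehicle-treated tumor-bearing mice served as controls (C) for compound-treated mice (T). Reported figure is T divided by C.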

[1] = T/C endpoint: mean survival time, dose: 25.0 mg/kg/injection, schedule: Q01DX009 (ip), vehicle: saline
[2] = T/C endpoint: mean survival time, dose: 400.0 mg/kg/injection, schedule: Q01DX001 (ip), vehicle: saline
[3] = T/C endpoint: mean survival time, dose: 200.0 mg/kg/injection, schedule: Q01DX009 (ip), vehicle: water
[4] = T/C endpoint: mean survival time, dose: 200.0 mg/kg/injection, schedule: Q01DX001 (ip), vehicle: saline with Tween-80
[5] = T/C endpoint: mean survival time, dose: 400.0 mg/kg/injection, schedule: Q01DX001 (ip), vehicle: saline with Tween-80
[6] = T/C endpoint: mean survival time, dose: 50.0 mg/kg/injection, schedule: Q01DX009 (ip), vehicle: water
[7] = T/C endpoint: mean survival time, dose: 400.0 mg/kg/injection, schedule: Q01DX009 (ip), vehicle: saline with Tween-80
[8] = T/C endpoint: mean survival time, dose: 100.0 mg/kg/injection, schedule: Q01DX009 (ip), vehicle: saline with Tween-80

O=C1NC(=O)C2C3CCC(O3)C12 (configuration not stated)
survivor count (T/C endpoint: mean survival time, dose: 100.0 mg/kg/injection, schedule: Q04DX002 (ip), vehicle: saline with Tween-80): 3 of 3 | survivor count (T/C endpoint: mean survival time, dose: 100.0 mg/kg/injection, schedule: Q04DX002 (ip), vehicle: saline): 3 of 3 | survivor count (T/C endpoint: mean survival time, dose: 200.0 mg/kg/injection, schedule: Q04DX002 (ip), vehicle: saline): 2 of 3 | survivor count (T/C endpoint: mean survival time, dose: 400.0 mg/kg/injection, schedule: Q04DX002 (ip), vehicle: saline with Tween-80): 0 of 3 | survivor count (T/C endpoint: mean survival time, dose: 400.0 mg/kg/injection, schedule: Q04DX002 (ip), vehicle: saline): 0 of 3

ClCc1c2ccccc2c(CCl)c2ccccc12
survivor count (T/C endpoint: mean survival time, dose: 2.05 mg/kg/injection, schedule: Q01DX009 (ip), vehicle: saline with Tween-80): 3 of 6 | survivor count (T/C endpoint: mean survival time, dose: 3.12 mg/kg/injection, schedule: Q01DX009 (ip), vehicle: saline with Tween-80): 3 of 6 | survivor count (T/C endpoint: mean survival time, dose: 4.68 mg/kg/injection, schedule: Q01DX009 (ip), vehicle: saline with Tween-80): 1 of 6

C1CN(P2(N3CC3)=NP(N3CC3)(N3CC3)=NP(N3CC3)(N3CC3)=N2)CCO1 (configuration not stated)
T/C (T/C endpoint: mean survival time, dose: 12.5 mg/kg/injection, schedule: Q01DX009 (ip), vehicle: saline): 113, 116, 123, 134 % of control | T/C [1]: 136, 145 (2×), 146 % of control | T/C (T/C endpoint: mean survival time, dose: 50.0 mg/kg/injection, schedule: Q01DX009 (ip), vehicle: saline): 98, 129, 151, 170 % of control | T/C (T/C endpoint: mean survival time, dose: 100.0 mg/kg/injection, schedule: Q01DX001 (ip), vehicle: saline): 142 % of control | survivor count (T/C endpoint: mean survival time, dose: 100.0 mg/kg/injection, schedule: Q01DX009 (ip), vehicle: saline): 10 of 10 and 6 of 6 | survivor count (T/C endpoint: mean survival time, dose: 200.0 mg/kg/injection, schedule: Q01DX001 (ip), vehicle: saline): 2 of 6 | survivor count (T/C endpoint: mean survival time, dose: 200.0 mg/kg/injection, schedule: Q01DX009 (ip), vehicle: saline): 3 of 6 and 7 of 10 | survivor count [2]: 3 of 6

Nc1cc(N)c2cccnc2c1O
survivor count [1]: 0 of 6

COc1ccc(-c2nc(C)cc3cc(OC)c(OC)cc23)cc1OC
survivor count [3]: 1 of 6

CC(CC(C)O)=NCCN=C(C)CC(C)O.[Ni] (configuration not stated)
survivor count (T/C endpoint: mean survival time, dose: 50.0 mg/kg/injection, schedule: Q01DX001 (ip), vehicle: saline): 5 of 6 | survivor count (T/C endpoint: mean survival time, dose: 100.0 mg/kg/injection, schedule: Q01DX001 (ip), vehicle: saline with Tween-80): 5 of 6 | survivor count [4]: 0 of 6 | survivor count [5]: 0 of 6

COC12C(COC(=O)NCCO)C3=C(C(=O)C(C)=C(N)C3=O)N1CC1NC12 (configuration not stated)
T/C (T/C endpoint: mean survival time, dose: 12.5 mg/kg/injection, schedule: Q01DX009 (ip), vehicle: Klucel (hydroxypropylcellulose) (HPC)): 127 % of control [5 of 6 alive] | T/C (T/C endpoint: mean survival time, dose: 25.0 mg/kg/injection, schedule: Q01DX009 (ip), vehicle: Klucel (hydroxypropylcellulose) (HPC)): 128 and 130 % of control | T/C (T/C endpoint: mean survival time, dose: 49.0 mg/kg/injection, schedule: Q01DX001 (ip), vehicle: carboxymethylcellulose (CMC)): 127 % of control | T/C (T/C endpoint: mean survival time, dose: 74.0 mg/kg/injection, schedule: Q01DX001 (ip), vehicle: carboxymethylcellulose (CMC)): 129 and 146 % of control | T/C (T/C endpoint: mean survival time, dose: 119.0 mg/kg/injection, schedule: Q01DX001 (ip), vehicle: carboxymethylcellulose (CMC)): 135 % of control | T/C (T/C endpoint: mean survival time, dose: 148.0 mg/kg/injection, schedule: Q01DX001 (ip), vehicle: carboxymethylcellulose (CMC)): 129 [4 of 5 alive] and 148 % of control

Cc1cccc(N=Cc2ccccc2O)c1
survivor count [5]: 6 of 6

CC(c1ccccc1)n1cncc1CN1CCOCC1 (configuration not stated)
survivor count [4]: 0 of 6 | survivor count [5]: 0 of 6

CC1(C)CC(OP(=O)(OC2CC(C)(C)N(O)C(C)(C)C2)N2CC2)CC(C)(C)N1O
T/C [6]: 130 % of control | T/C (T/C endpoint: mean survival time, dose: 100.0 mg/kg/injection, schedule: Q01DX009 (ip), vehicle: water): 128 % of control | survivor count [3]: 4 of 6

NC(=S)N/N=C\c1ncccc1OCc1cccc(N)c1
T/C (T/C endpoint: mean survival time, dose: 200.0 mg/kg/injection, schedule: Q01DX009 (ip), vehicle: distilled water + Tween-80): 133 % of control | T/C (T/C endpoint: mean survival time, dose: 400.0 mg/kg/injection, schedule: Q01DX009 (ip), vehicle: distilled water + Tween-80): 127 % of control | survivor count [7]: 6 of 6

O=C(N/N=C\c1ccc(F)cc1)N/N=C/c1ccc(F)cc1
survivor count [8]: 3 of 3

CCOC(=S)SSC(=S)OCC
survivor count (T/C endpoint: mean survival time, dose: 400.0 mg/kg/injection, schedule: Q01DX001 (ip), vehicle: Klucel (hydroxypropylcellulose) (HPC)): 1 of 3

COc1cccc2c1C(=O)c1c(O)c3c(c(O)c1C2=O)C[C@@](O)(/C(C)=N\O)C[C@@H]3OC1CC(N)C(O)C(C)O1 (some centres not stated)
T/C (T/C endpoint: mean survival time, dose: 12.5 mg/kg/injection, schedule: Q01DX009 (ip), vehicle: water): 126 % of control | survivor count [6]: 4 of 6

CCOC(OCC)c1cc[n+](CCc2ccc(OC)c(OC)c2)cc1
survivor count (T/C endpoint: mean survival time, dose: 200.0 mg/kg/injection, schedule: Q04DX003 (ip), vehicle: saline): 3 of 6 | survivor count (T/C endpoint: mean survival time, dose: 400.0 mg/kg/injection, schedule: Q04DX003 (ip), vehicle: saline): 0 of 6

CCC1(OC(=O)CNC)C(=O)OCc2c1cc1n(c2=O)Cc2cc3ccccc3nc2-1 (configuration not stated)
T/C (T/C endpoint: median survival time, dose: 7.5 mg/kg/injection, schedule: Q04DX002 (ip), vehicle: saline): 127 % of control | T/C (T/C endpoint: median survival time, dose: 30.0 mg/kg/injection, schedule: Q04DX002 (ip), vehicle: saline): 127 % of control | survivor count (T/C endpoint: median survival time, dose: 60.0 mg/kg/injection, schedule: Q04DX002 (ip), vehicle: saline): 6 of 6

COc1ccc2c(oc(=O)c3c(Cl)nc(C)c(C)c32)c1OC
survivor count (T/C endpoint: mean survival time, dose: 400.0 mg/kg/injection, schedule: Q01DX009 (ip), vehicle: Klucel (hydroxypropylcellulose) (HPC)): 6 of 6

C=C(C)CN=C=S
survivor count (T/C endpoint: mean survival time, dose: 200.0 mg/kg/injection, schedule: Q04DX003 (ip), vehicle: saline with Tween-80): 0 of 6 | survivor count (T/C endpoint: mean survival time, dose: 400.0 mg/kg/injection, schedule: Q04DX003 (ip), vehicle: saline with Tween-80): 0 of 6

CC(C)CCNC(=O)CI
survivor count [2]: 1 of 4

CCO/C(=C/[S+](C)C)c1ccccc1
survivor count (T/C endpoint: mean survival time, dose: 75.0 mg/kg/injection, schedule: Q01DX001 (ip), vehicle: saline): 0 of 6 | survivor count (T/C endpoint: mean survival time, dose: 150.0 mg/kg/injection, schedule: Q01DX001 (ip), vehicle: saline): 0 of 6 | survivor count (T/C endpoint: mean survival time, dose: 300.0 mg/kg/injection, schedule: Q01DX001 (ip), vehicle: saline): 0 of 6

Cc1cc(NC(=S)SCc2ccc3c(c2)OCO3)ccc1Cl
T/C (T/C endpoint: median survival time, dose: 100.0 mg/kg/injection, schedule: Q01DX009 (ip), vehicle: Klucel (hydroxypropylcellulose) (HPC), evaluated on day 20): 126 % of control | T/C (T/C endpoint: median survival time, dose: 100.0 mg/kg/injection, schedule: Q01DX009 (ip), vehicle: Klucel (hydroxypropylcellulose) (HPC), evaluated on day 30): 137 % of control | survivor count (T/C endpoint: median survival time, dose: 200.0 mg/kg/injection, schedule: Q01DX009 (ip), vehicle: Klucel (hydroxypropylcellulose) (HPC)): 4 of 6 (2×) | survivor count (T/C endpoint: median survival time, dose: 400.0 mg/kg/injection, schedule: Q01DX009 (ip), vehicle: Klucel (hydroxypropylcellulose) (HPC)): 1 of 6

O=C(O)C(O)C(O)C(=O)O.[NH-]C1CCCCCC1[NH-].[Pt+2] (configuration not stated)
T/C (T/C endpoint: mean survival time, dose: 5.0 mg/kg/injection, schedule: Q04DX003 (ip), vehicle: dextrose): 142 % of control | T/C (T/C endpoint: mean survival time, dose: 10.0 mg/kg/injection, schedule: Q04DX003 (ip), vehicle: dextrose): 141 and 146 % of control | survivor count (T/C endpoint: mean survival time, dose: 80.0 mg/kg/injection, schedule: Q04DX003 (ip), vehicle: dextrose): 4 of 6

C=C1C(=O)OC2CC1C(OC(C)=O)CC1(C)OC1CCC1(C)OC1CCC2(C)O (configuration not stated)
survivor count (T/C endpoint: mean survival time, dose: 50.0 mg/kg/injection, schedule: Q01DX009 (ip), vehicle: Klucel (hydroxypropylcellulose) (HPC)): 4 of 6 | survivor count (T/C endpoint: mean survival time, dose: 100.0 mg/kg/injection, schedule: Q01DX009 (ip), vehicle: Klucel (hydroxypropylcellulose) (HPC)): 2 of 6

Cc1cccc(/C=N\OCc2ccccc2)n1
survivor count [7]: 3 of 6

CCC(=O)NC1=CC(=O)c2ccccc2C1=O
survivor count [8]: 2 of 6

CCCCS(=O)CC(CO)NC(=O)/C=C/c1c(C)[nH]c(=O)[nH]c1=O (configuration not stated)
T/C (T/C endpoint: mean survival time, dose: 1.25 mg/kg/injection, schedule: Q01DX009 (ip), vehicle: water): 132 % of control | T/C (T/C endpoint: mean survival time, dose: 5.0 mg/kg/injection, schedule: Q01DX009 (ip), vehicle: water): 138 % of control | T/C (T/C endpoint: mean survival time, dose: 10.0 mg/kg/injection, schedule: Q01DX009 (ip), vehicle: water): 125 % of control
